Reference: patent US12729225B2, “Non-canonical SWI/SNF complex and uses thereof” (Dana-Farber Cancer Institute, Inc., priority 2018, dated 2026)

System: mSWI/SNF complexes
Assay: mSWI/SNF complex purification with HA-tagged baits and mass spectrometry (peptide counts)
Design: species or system human
[1] = 293_HA-DPF2 purification, total peptides
[2] = 293_HA-DPF2 purification, unique peptides
[3] = 293_HA-BRD7: HA-BRD7 bait purification, total peptide count per co-purified protein
[4] = 293_HA-BRD7: HA-BRD7 bait purification, unique peptide count per co-purified protein

B1: TCP11L2 (protein, UniProt Q8N4U5 1-519, looked up)
T-complex protein 11-like …: MPFNGEKQCVGEDQPSDSDSSRFSESMASLSDYECSRQSFASDSSSKSSSPASTSPPRVVTFDEVMATARNLSNLTLAHEIAVNENFQLKQEALPEKSLAGRVKHIVHQAFWDVLDSELNADPPEFEHAIKLFEEIREILLSFLTPGGNRLRNQICEVLDTDLIRQQAEHSAVDIQGLANYVISTMGKLCAPVRDNDIRELKATGNIVEVLRQIFHVLDLMQMDMANFTIMSLRPHLQRQLVEYERTKFQEILEETPSALDQTTEWIKESVNEELFSLSESALTPGAENTSKPSLSPTLVLNNSYLKLLQWDYQKKELPETLMTDGARLQELTEKLNQLKIIACLSLITNNMVGAITGGLPELASRLTRISAVLLEGMNKETFNLKEVLNSIGIQTCVEVNKTLMERGLPTLNAEIQANLIGQFSSIEEEDNPIWSLIDKRIKLYMRRLLCLPSPQKCMPPMPGGLAVIQQELEALGSQYANIVNLNKQVYGPFYANILRKLLFNEEAMGKVDASPPTN
Total [1]: 1
Unique [2]: 1

B2: ANKRD49 (protein, UniProt Q8WVL7 1-239, looked up)
Ankyrin repeat …: MEKEKGNDDGIPDQENSLDFSEHFNQLELLETHGHLIPTGTQSLWVGNSDEDEEQDDKNEEWYRLQEKKMEKDPSRLLLWAAEKNRLTTVRRLLSEKATHVNTRDEDEYTPLHRAAYSGHLDIVQELIAQGADVHAVTVDGWTPLHSACKWNNTRVASFLLQHDADINAQTKGLLTPLHLAAGNRDSKDTLELLLMNRYVKPGLKNNLEETAFDIARRTSIYHYLFEIVEGCTNSSPQS
Total [1]: 1
Unique [2]: 1

B3: ALDH1B1 (protein, UniProt P30837 18-517, looked up)
Aldehyde dehydrogenase X, …: RYSSAAALPSPILNPDIPYNQLFINNEWQDAVSKKTFPTVNPTTGEVIGHVAEGDRADVDRAVKAAREAFRLGSPWRRMDASERGRLLNRLADLVERDRVYLASLETLDNGKPFQESYALDLDEVIKVYRYFAGWADKWHGKTIPMDGQHFCFTRHEPVGVCGQIIPWNFPLVMQGWKLAPALATGNTVVMKVAEQTPLSALYLASLIKEAGFPPGVVNIITGYGPTAGAAIAQHVDVDKVAFTGSTEVGHLIQKAAGDSNLKRVTLELGGKSPSIVLADADMEHAVEQCHEALFFNMGQCCCAGSRTFVEESIYNEFLERTVEKAKQRKVGNPFELDTQQGPQVDKEQFERVLGYIQLGQKEGAKLLCGGERFGERGFFIKPTVFGGVQDDMRIAKEEIFGPVQPLFKFKKIEEVVERANNTRYGLAAAVFTRDLDKAMYFTQALQAGTVWVNTYNIVTCHTPFGGFKESGNGRELGEDGLKAYTEVKTVTIKVPQKNS
Total [3]: 11
Unique [4]: 11
Total [1]: 1
Unique [2]: 1

B4: CAPS2 (protein, UniProt Q9BXY5 1-538, looked up)
Calcyphosin-2: MDLEVKGVAATSRSQIQPFFGRKKPLQQRWTSESWTNQNSCPPVVPRLDLGSLVDSDDEDNFSYIPLSTANLPNSSSTLGWVTPCQTPYTQYHLNKLDQNIIPENLPAPTDKCKLKYQQCKTEIKEGYKQYSQRNAENTKSNVTHKQSPRNKIDEKCVQDEEANTDDLTTLDRKAILQQGYADNSCDKQQRARKLDAEIVAAEKKKQIVAEQVMIDHLSRAVISDPEQNLAIEQKESDHILPDSKMTPLRFRKRTLHETKIRTHSTLTENVLSHKLQFDGRIVSRNGRDACRELIGFFFTHDQSLTIYEYRQFGKNRTNVLPFIQKSIYSHQCGRRKGKQYRLGDFYVGATLTFLSSDHLSLPESIKENTLLKLRITNIDQIALDSLKTASMEQEDDIIIQETNDRLVFKAIQDVLKEKLHKRGVRILTGLGKYFQQLDKEGNGLLDKADFKQALKVFHLEVSEKDFESAWLILNDNGNGKVDYGEFKRGIIGEMNEYRKSYVRKAFMKLDFNKSGSVPIINIRKCYCAKKHSQVISG
Total [1]: 2
Unique [2]: 1

B5: DDX27 (protein, UniProt Q96GQ7 1-765, looked up)
Probable ATP-dependent RNA …: MLADLGLIGTIGEDDEVPVEPESDSGDEEEEGPIVLGRRQKALGKNRSADFNPDFVFTEKEGTYDGSWALADVMSQLKKKRAATTLDEKIEKVRKKRKTEDKEAKSGKLEKEKEAKEGSEPKEQEDLQENDEEGSEDEASETDYSSADENILTKADTLKVKDRKKKKKKGQEAGGFFEDASQYDENLSFQDMNLSRPLLKAITAMGFKQPTPIQKACIPVGLLGKDICACAATGTGKTAAFALPVLERLIYKPRQAPVTRVLVLVPTRELGIQVHSVTRQLAQFCNITTCLAVGGLDVKSQEAALRAAPDILIATPGRLIDHLHNCPSFHLSSIEVLILDEADRMLDEYFEEQMKEIIRMCSHHRQTMLFSATMTDEVKDLASVSLKNPVRIFVNSNTDVAPFLRQEFIRIRPNREGDREAIVAALLTRTFTDHVMLFTQTKKQAHRMHILLGLMGLQVGELHGNLSQTQRLEALRRFKDEQIDILVATDVAARGLDIEGVKTVINFTMPNTIKHYVHRVGRTARAGRAGRSVSLVGEDERKMLKEIVKAAKAPVKARILPQDVILKFRDKIEKMEKDVYAVLQLEAEEKEMQQSEAQINTAKRLLEKGKEAVVQEPERSWFQTKEERKKEKIAKALQEFDLALRGKKKRKKFMKDAKKKGEMTAEERSQFEILKAQMFAERLAKRNRRAKRARAMPEEEPVRGPAKKQKQGKKSVFDEELTNTSKKALKQYRAGPSFEERKQLGLPHQRRGGNFKSKSRYKRRK
Total [3]: 11
Unique [4]: 11

B6: LUC7L3 (protein, UniProt O95232 1-432, looked up)
Luc7-like protein 3: MISAAQLLDELMGRDRNLAPDEKRSNVRWDHESVCKYYLCGFCPAELFTNTRSDLGPCEKIHDENLRKQYEKSSRFMKVGYERDFLRYLQSLLAEVERRIRRGHARLALSQNQQSSGAAGPTGKNEEKIQVLTDKIDVLLQQIEELGSEGKVEEAQGMMKLVEQLKEERELLRSTTSTIESFAAQEKQMEVCEVCGAFLIVGDAQSRVDDHLMGKQHMGYAKIKATVEELKEKLRKRTEEPDRDERLKKEKQEREEREKEREREREERERKRRREEEEREKERARDRERRKRSRSRSRHSSRTSDRRCSRSRDHKRSRSRERRRSRSRDRRRSRSHDRSERKHRSRSRDRRRSKSRDRKSYKHRSKSRDREQDRKSKEKEKRGSDDKKSSVKSGSREKQSEDTNTESKESDTKNEVNGTSEDIKSEGDTQSN
Total [3]: 10
Unique [4]: 10

B7: STOML2 (protein, UniProt Q9UJZ1 29-356, looked up)
Stomatin-like protein 2, …: SSGLPRNTVVLFVPQQEAWVVERMGRFHRILEPGLNILIPVLDRIRYVQSLKEIVINVPEQSAVTLDNVTLQIDGVLYLRIMDPYKASYGVEDPEYAVTQLAQTTMRSELGKLSLDKVFRERESLNASIVDAINQAADCWGIRCLRYEIKDIHVPPRVKESMQMQVEAERRKRATVLESEGTRESAINVAEGKKQAQILASEAEKAEQINQAAGEASAVLAKAKAKAEAIRILAAALTQHNGDAAASLTVAEQYVSAFSKLAKDSNTILLPSNPGDVTSMVAQAMGVYGALTKAPVPGTPDSLSSGSSRDVQGTDASLDEELDRVKMS
Total [3]: 11
Unique [4]: 10

B8: SS18L1 (protein)
chain: MSVAFASARPRGKGEVTQQTIQKMLDENHHLIQCILEYQSKGKTAECTQYQQILHRNLVYLATIADSNQNMQSLLPAPPTQNMNLGPGALTQSGSSQGLHSQGSLSDAISTGLPPSSLLQGQIGNGPSHVSMQQTAPNTLPTTSMSISGPGYSHAGPASQGVPMQGQGTIGNYVSRTNINMQSNPVSMMQQQAATSHYSSAQGGSQHYQGQSSIAMMGQGSQGSSMMGQRPMAPYRPSQQGSSQQYLGQEEYYGEQYSHSQGAAEPMGQQYYPDGHGDYAYQQSSYTEQSYDRSFEESTQHYYEGGNSQYSQQQAGYQQGAAQQQTYSQQQYPSQQSYPGQQQGYGSAQGAPSQYPGYQQGQGQQYGSYRAPQTAPSAQQQRPYGYEQGQYGNYQQ
Total [1]: 3
Unique [2]: 2
